pIC50: −log10 of the molar value.
Key:
A549 = test: cells; format: functional, cell-based; conditions: Homo sapiens, A549, 72 h
MCF7 = test: cells; format: functional, cell-based; conditions: Homo sapiens, MCF7, 72 h
LoVo = test: cells; format: functional, cell-based; conditions: Homo sapiens, 72 h
cells = format: functional, cell-based; conditions: Homo sapiens, LoVo/DX, 72 h
BALB/3T3 = test: Cytotoxicity against mouse BALB/3T3 cells assessed as reduction in cell viability incubated for 72 hrs by SRB assay; format: ADME, cell-based; conditions: BALB/3T3, 72 h

In the case of `COc1cc2c(c(OC)c1OC)-c1ccc(SC)c(=O)cc1[C@@H](N)CC2`, the pIC50 (A549) was 7.96, the pIC50 (MCF7) was 8.02 and the pIC50 (LoVo) was 7.99. For the same compound, the pIC50 (cells) was 7.11 and the pIC50 (BALB/3T3) was 7.81.

Reference: ChEMBL document CHEMBL5030546, “Synthesis of thiocolchicine amine derivatives and evaluation of their antiproliferative activity” (Bioorg Med Chem Lett, 2021)
